Assay results reported in PubChem BioAssay AID2551 (National Center for Advancing Translational Sciences (NCATS), 2010).
About 17,000 (5.5%) of roughly 310,000 compounds were called active. The inconclusive results got no clear call from the source; some entries with a clear call stand among them for comparison. Calls follow the shape of the dose curve; as a rule, active = well fitted inhibition curve with a large enough effect; inconclusive = small, poorly fitted or top-dose-only effect, or effect the other way; inactive = no such curve, though single readings can be large or run the other way. Potencies of inconclusive entries are doubtful fits and often do not repeat.
% is scaled to controls: 0 for no effect and ±100 for the full control effect; potency is read from the fitted curve at half-maximal effect.
Also: nearly all actives have a fitted effect of over 60% in size.

Chains of the proteins cited; added tags and fusions are not shown. Lines headed by an entry give the natural chain unless they say otherwise; changes in a name come on top.
UniProt P51450: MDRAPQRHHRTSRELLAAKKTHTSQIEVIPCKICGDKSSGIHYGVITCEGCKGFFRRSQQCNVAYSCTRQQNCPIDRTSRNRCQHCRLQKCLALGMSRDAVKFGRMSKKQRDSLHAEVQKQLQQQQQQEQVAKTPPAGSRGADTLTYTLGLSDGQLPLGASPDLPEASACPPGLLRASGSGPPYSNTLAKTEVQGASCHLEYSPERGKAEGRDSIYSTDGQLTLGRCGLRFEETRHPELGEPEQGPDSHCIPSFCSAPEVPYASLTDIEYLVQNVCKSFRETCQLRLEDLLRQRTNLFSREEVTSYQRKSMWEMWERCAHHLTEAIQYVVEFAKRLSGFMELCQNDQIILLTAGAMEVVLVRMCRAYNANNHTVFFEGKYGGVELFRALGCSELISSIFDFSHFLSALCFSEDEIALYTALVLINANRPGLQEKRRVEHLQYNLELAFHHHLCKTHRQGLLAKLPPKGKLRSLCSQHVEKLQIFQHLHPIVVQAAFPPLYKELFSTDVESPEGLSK

These molecules were tested against Nuclear receptor ROR-gamma (Mus musculus) (UniProt P51450) (assay: qHTS for inhibitors of ROR gamma transcriptional activity). Settings: Drosophila S2 Gal4-RORgamma UAS-luciferase reporter, 20 h; activity change, negative = inhibition: at 53.6 µM (top of the series).
Method in brief: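 ROR gamma transcriptional activity was tracked as Gal4-UAS luciferase output in stably transfected Drosophila Schneider cells, with compound added 1 hr before 700 uM copper sulfate induction and a 20 hr ambient-temperature incubation.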
With `CCn1c(CCn2c3ccccc3c3ccccc32)n[nH]c1=S` the Potency was active: 5.62 µM. With `CCN(Cc1ccccc1)C(=O)c1c[nH]c2ccc(S(=O)(=O)N(C)CCC#N)cc2c1=O` the “activity change, negative = inhibition” value was inactive: -9.03%. For `C/C(=N\NC(=S)NCCc1ccccc1)c1ccc(C#N)cc1`, the Potency was active: 3.98 µM. For `CCc1ccccc1N1C(=O)C2C3C=CC(CC3)C2C1=O` (stereo not drawn), the “activity change, negative = inhibition” value was inactive: -12.4%. With `N#CCCN1CCN(Cc2cc(-c3ccccc3)ccc2O)CC1` the “activity change, negative = inhibition” value was inactive: 16.3%. For `CC/C=C/C/C=C/C/C=C/CCCCCCCC(=O)OCC`, the Potency was inconclusive: 35.5 µM [inhibitor, single point]. For `Cc1ccc(C)c(Cn2nnc3c(=O)[nH]c(C4CCCN(C(=O)c5cccs5)C4)nc32)c1` (stereo not drawn), the Potency was inconclusive: 0.794 µM [activator, full curve]. With `CC(C)(C)c1cc(C(=O)NN)n(Cc2ccc(F)cc2)n1` the Potency was active: 11.2 µM. `O=C(CN1C(=O)/C(=C\c2ccccc2Cl)Oc2ccccc21)NCc1cccnc1` was tested, and the “activity change, negative = inhibition” value was inactive: -44.8%. `N=c1scc(-c2ccccc2)n1/N=C/c1ccco1` was tested, and the “activity change, negative = inhibition” value was inactive: -27.5%. For `COc1ccccc1NC(=O)COc1ccc(Br)cc1CNCCCN1CCOCC1`, the “activity change, negative = inhibition” value was inactive: -5.4%. `O=C(Nc1ccc(Cl)cc1)NC1CCCc2ccccc21` (stereo not drawn) was tested, and the “activity change, negative = inhibition” value was inactive: 23.1%. In the case of `COc1cccc(-c2csc(NC(=O)C3CC3)n2)c1`, the Potency is reported as inconclusive: 0.251 µM [activator, full curve]. In the case of `Fc1cccc(Nc2ncnc3c2cnn3-c2ccccc2)c1`, the Potency is reported as inconclusive: 20 µM [activator, single point]. For `CCCOC1CCCN(C(=O)CCCn2nnnc2CN2CCOCC2)C1` (stereo not drawn), the Potency was inconclusive: 0.112 µM [inhibitor, full curve, poor fit]. `Cc1cc(Nc2ccc(Br)cc2F)n2ncnc2n1` was tested, and the Potency was inconclusive: 22.4 µM [inhibitor, single point]. With `O=c1c2cc(-c3ccccc3)sc2ncn1-n1cccc1` the Potency was inconclusive: 1.12 µM [activator, full curve]. With `COC(=O)c1[nH]c2ccccc2c1NC(=O)/C=C/c1ccc2c(c1)OCO2` the “activity change, negative = inhibition” value was inactive: -2.09%. `O=C(NC(=S)Nc1ccc(F)cc1)c1ccc2c(c1)OCCO2` was tested, and the Potency was active: 7.08 µM. For `CCn1c(C)nc2cc(S(=O)(=O)N3CCCC3)ccc21`, the Potency was inconclusive: 17.8 µM [activator, single point]. In the case of `COc1cc(/C=N/NC(=O)c2cccs2)ccc1OCc1ccccc1`, the Potency is reported as inconclusive: 35.5 µM [inhibitor, single point]. For `COc1ccc(N2CCN(C(=O)C3CCCN(S(=O)(=O)c4ccc(C)cc4)C3)CC2)cc1` (stereo not drawn), the Potency was inconclusive: 10 µM [activator, partial curve]. With `O=C(OCc1ccc(C(=O)c2ccccc2)cc1)c1cccc(-c2nnc(-c3ccccc3)o2)c1` the “activity change, negative = inhibition” value was inactive: 2.03%. In the case of `S=C(NC1CCCCC1)NC1CC2C=CC1C2` (stereo not drawn), the Potency is reported as inconclusive: 3.55 µM [inhibitor, partial curve, poor fit]. In the case of `COc1ccccc1CC(=O)Nc1cc(OC)c(NC(=O)c2ccccc2)cc1OC`, the Potency is reported as inconclusive: 3.16 µM [activator, full curve]. In the case of `Cc1ccc(NC(=O)Cc2sc(C)nc2-c2ccc(C)cc2)cc1`, the Potency is reported as inconclusive: 10 µM [activator, partial curve]. `Cc1ccc(C)c(C(=O)COC(=O)c2cc([N+](=O)[O-])ccc2NCCO)c1` was tested, and the Potency was inconclusive: 20 µM [activator, single point]. For `O=C(Nc1ccc(Cl)cc1)N(CCCN1CCOCC1)Cc1cccs1`, the “activity change, negative = inhibition” value was inactive: 18.3%. In the case of `COc1cccc(/C=N/c2nc3ccccc3n2C)c1O`, the Potency is reported as inconclusive: 15.8 µM [inhibitor, single point]. With `CCOC(=O)C1CCCN(C2CC(=O)N(c3ccccc3)C2=O)C1` (stereo not drawn) the Potency was inconclusive: 35.5 µM [inhibitor, single point]. With `COc1ccc2nc(-c3ccco3)c(-c3ccco3)nc2c1` the Potency was inconclusive: 35.5 µM [inhibitor, single point]. `O=C(COc1cccc(F)c1)Oc1ccc(C(=O)c2ccccc2)cc1` was tested, and the Potency was inconclusive: 17.8 µM [activator, single point]. In the case of `COc1ccccc1/C=N/NC(=O)c1ccc(-c2ccccc2)cc1`, the Potency is reported as active: 11.2 µM. With `c1ccc2c(CCNc3ncnc4nc[nH]c34)c[nH]c2c1` the Potency was inconclusive: 1.58 µM [activator, full curve, poor fit]. `COc1cc2c(cc1OC)C1=NC(=O)CN1C(SCc1ccccc1C)=N2` was tested, and the Potency was inconclusive: 17.8 µM [activator, partial curve]. For `Cc1cccc(NC(=O)N2CCc3ccccc3C2)c1C`, the Potency was inconclusive: 0.0891 µM [activator, full curve]. With `CC(C)(O)C#Cc1ccc(C(=O)Nc2ccc3c(c2)OCO3)s1` the Potency was inconclusive: 3.55 µM [activator, single point]. In the case of `O=C(NCc1ccccc1)C(c1ccccc1)N(Cc1ccc2c(c1)OCO2)C(=O)Cc1cccs1` (stereo not drawn), the Potency is reported as inconclusive: 0.0891 µM [inhibitor, single point]. For `COc1ccc(NC(=O)CSc2cc(C)ccc2C)cn1`, the Potency was inconclusive: 11.2 µM [activator, single point]. With `CCCCn1c(-c2sccc2C)n[nH]c1=S` the Potency was active: 5.01 µM. `COc1ccc(CNc2ncnc3ccc(-c4cccc(NS(C)(=O)=O)c4)cc23)c(OC)c1` was tested, and the Potency was inconclusive: 8.91 µM [activator, partial curve]. With `O=C(Nc1ccccc1F)N(CCCN1CCOCC1)Cc1cc2cc3c(cc2[nH]c1=O)OCCO3` the Potency was inconclusive: 35.5 µM [activator, single point]. In the case of `COc1ccc(-n2c(SCC(=O)N(C)c3ccccc3)nc3c([nH]c4ccccc43)c2=O)cc1OC`, the Potency is reported as inconclusive: 35.5 µM [inhibitor, single point]. With `Cc1nn(-c2ccccc2)c(C)c1/C=N/NC(=O)c1cc(C(C)(C)C)[nH]n1` the Potency was inconclusive: 6.31 µM [activator, partial curve]. For `O=C(CNC(=O)c1ccccn1)N=Nc1c(O)[nH]c2ccccc12`, the “activity change, negative = inhibition” value was inactive: 8.4%. `COc1ccc(C(=O)Nc2cccc(-c3nnc(-c4ccco4)o3)c2)cc1` was tested, and the Potency was inconclusive: 0.316 µM [inhibitor, full curve]. With `CC1=CC2C(C)(C)CC(=O)C[C@]2(C)CC1COc1ccc2c(c1)CC(=O)C=C2` (stereo partly drawn) the “activity change, negative = inhibition” value was inactive: -2.08%. `CC(=O)Oc1cc(OC(C)=O)c2c(=O)c(-c3ccc4c(c3)OCCCO4)c(C)oc2c1` was tested, and the Potency was inconclusive: 3.55 µM [activator, single point]. `CCOc1ccc(N(CC(=O)N/N=C/c2cccnc2)S(C)(=O)=O)cc1` was tested, and the “activity change, negative = inhibition” value was inactive: 15%. `CCOC(=O)C1CCN(Cc2c(O)c3ccccc3oc2=O)CC1` was tested, and the Potency was inconclusive: 35.5 µM [activator, single point]. `COC(=O)c1sc2nc(CN3CCN(c4cccc(C(F)(F)F)c4)CC3)[nH]c(=O)c2c1C` was tested, and the Potency was inconclusive: 12.6 µM [inhibitor, partial curve, poor fit]. With `COc1ccccc1C(=O)N/C(N)=N/c1nc2ccccc2o1` the Potency was active: 8.91 µM. For `Nc1nnc(SCc2ccccc2)n1-c1ccccc1`, the Potency was inconclusive: 0.562 µM [activator, single point]. With `O=C(Cc1cccs1)NNC(=S)NCc1ccc(Cl)cc1` the Potency was active: 3.98 µM. With `Cc1c(C)c2ccc(OCC(=O)Nc3ccccn3)c(C)c2oc1=O` the Potency was inconclusive: 0.562 µM [inhibitor, full curve]. For `COc1ccc(-c2cc(C(=O)NC3=NCCS3)c3ccccc3n2)cc1OC`, the Potency was inconclusive: 25.1 µM [inhibitor, single point]. For `CCOC(=O)C1CCN(c2c(NCCN3CCN(c4ccccc4)CC3)c(=O)c2=O)CC1`, the “activity change, negative = inhibition” value was inactive: -26.8%. For `CCCNC(=O)c1ccc(COc2ccc(CCC)cc2OC)o1`, the Potency was inconclusive: 12.6 µM [activator, single point]. In the case of `CCOc1ccc(N(CC(=O)NC2CCCCCC2)S(=O)(=O)c2ccccc2)cc1`, the Potency is reported as inconclusive: 25.1 µM [inhibitor, single point]. With `Cc1nc2ccccn2c1-c1nnco1` the activity change, negative = inhibition was inactive: -5.95% [at 10 µM]. With `Cc1ccc(-c2nnc(NC3CCCC3)s2)cc1` the Potency was active: 11.2 µM. In the case of `NS(=O)(=O)c1ccc(NC(=O)Nc2cccc(Cl)c2)cc1`, the Potency is reported as inconclusive: 35.5 µM [inhibitor, single point]. In the case of `COc1ccc2oc(C(=O)Nc3ccccn3)c(C)c2c1`, the Potency is reported as inconclusive: 35.5 µM [inhibitor, single point]. With `CC(=O)N1CCSc2ccc(S(=O)(=O)Nc3cccc(C)c3)cc21` the Potency was inconclusive: 15.8 µM [activator, single point]. In the case of `COc1ccc(CCn2c(S)nc3ccccc3c2=O)cc1`, the Potency is reported as active: 3.16 µM. `NCCCCCCNS(=O)(=O)c1ccc2c(Cl)cccc2c1` was tested, and the Potency was inconclusive: 35.5 µM [inhibitor, single point]. In the case of `CC(Oc1ccc2c3c(c(=O)oc2c1)CCCC3)C(=O)NCCN1CCOCC1` (stereo not drawn), the “activity change, negative = inhibition” value is reported as inactive: -3.92%. For `CCCCC[C@H](O)/C=C/[C@H]1C=CC(=O)[C@@H]1CCCCCCC(=O)O`, the Potency was inconclusive: 8.91 µM [inhibitor, single point]. For `CCCCOC(=O)c1ccc(N)cc1`, the Potency was inconclusive: 11.2 µM [activator, partial curve, poor fit]. In the case of `CCOc1ccc2cc(S(=O)(=O)N3CCOCC3)ccc2c1`, the Potency is reported as inconclusive: 3.16 µM [activator, single point]. For `S=C(Nc1ccccc1Cl)N1CCC(c2ccccc2)C1` (stereo not drawn), the Potency was inconclusive: 31.6 µM [inhibitor, single point]. With `COc1cccc(C(=O)C2CCCN(Cc3cn(C)nc3-c3ccccc3)C2)c1` (stereo not drawn) the “activity change, negative = inhibition” value was inactive: 11.7%. `Oc1c(Br)cc(/C=N/n2c(-c3ccccc3)n[nH]c2=S)c(O)c1Br` was tested, and the “activity change, negative = inhibition” value was inactive: 0.732%.
